Results published in PubChem BioAssay AID493014 (National Center for Advancing Translational Sciences (NCATS), 2011).
The other results are listed elsewhere or left out. Further columns of the screen follow, without active or inactive calls. Most of these compounds were active or inconclusive in the main read-out, so they are no random draw. Potencies come from curve fits of mixed quality, noted in brackets.

Assay: qHTS Assay to Find Inhibitors of Chronic Active B-Cell Receptor Signaling
Conditions: ABC-DLBCL IkBa-CBG/CBR reporter, luminescence ratio (green luciferase fused to IkBa over red control in TMD8 lymphoma cells), 4 h
Outline: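 TMD8 ABC-DLBCL cells carrying doxycycline-inducible green luciferase fused to IkappaBalpha plus unfused red luciferase were exposed to compounds (up to 46 uM) for 4 hrs at 37C. Activity came from the overlap-corrected green/red luminescence ratio.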

[1] = measured here: CBR red luminescence, cell number
[2] = measured here: IkBa-CBG green luminescence

SMILES	AC50 [1]	AC50 [2]
COc1ccc(S(=O)(=O)N2CCOC2CNC(=O)C(=O)NCc2ccccn2)cc1C (centres undefined)	6.31 µM [rising, partial curve, poor fit]	–
Cc1cc(N/N=C/c2ccccc2O)nc(-c2ccccc2O)n1	1.3 µM [falling, full curve]	–
CCC1=Nc2cc(C(=O)NCC3CCCO3)ccc2Sc2ccc(Cl)cc21 (centres undefined)	15.8 µM [rising, single point]	22.4 µM [falling, single point]
CCCCCCc1cc2cc(C(=O)Nc3ccc(OC)cc3)c(=O)oc2cc1O	8.2 µM [falling, partial curve]	–
Cc1cccnc1NC(=S)NCc1ccco1	25.1 µM [rising, single point]	–
O=C(Nc1cccc2ccccc12)c1cc2c(cc1Br)OCO2	–	20 µM [falling, partial curve]
Cc1ccc(C(=O)N2CCN(S(=O)(=O)c3ccc(Br)cc3)CC2)o1	3.16 µM [falling, single point]	–
COc1ccc(CNC(=O)CSc2nc(-c3ccccc3)cc(-c3cccs3)c2C#N)cc1	2.06 µM [rising, full curve, poor fit]	–
O=C(Nc1ccccc1O)c1ccc(Cl)cc1	10 µM [falling, partial curve, poor fit]	–
CCCCN(CCCNC(=O)C1CCN(C(=O)c2cc3sccc3n2C)CC1)Cc1ccccc1	31.6 µM [falling, single point]	–
c1ccc(Cn2ncc3c(Nc4ccccc4)ncnc32)cc1	4.47 µM [falling, partial curve, poor fit]	–
O=C(O)C1CCN(c2nc(-c3ccccc3)nc3c2oc2ccccc23)CC1	8.91 µM [falling, partial curve]	–
Cn1nc(-c2ccccc2)c(COC(=O)c2cccc(Cl)c2)c1S(=O)(=O)c1ccccc1	6.51 µM [falling, single point]	–
Cc1csc2nc(O)c(C(=O)NC3CCCCCC3)c(=O)n12	5.8 µM [rising, single point]	–
CCS(=O)(=O)NCCCCc1ccccc1	3.26 µM [falling, single point]	–
O=S(=O)(c1cccc(Cl)c1)N1CCN(S(=O)(=O)c2ccc3c(c2)OCCO3)CC1	20.6 µM [rising, single point]	–
Cc1ccc(S(=O)(=O)c2ncccc2N)cc1	35.5 µM [rising, single point]	–
Cn1c(-c2ccccc2)cc2c3no[n+]([O-])c3ccc21	3.16 µM [rising, full curve, poor fit]	–

Random excerpt: 2 entries already listed, in no set order.
SMILES	AC50 [1]	AC50 [2]
CCC1=Nc2cc(C(=O)NCC3CCCO3)ccc2Sc2ccc(Cl)cc21 (centres undefined)	15.8 µM [rising, single point]	22.4 µM [falling, single point]
Cn1nc(-c2ccccc2)c(COC(=O)c2cccc(Cl)c2)c1S(=O)(=O)c1ccccc1	6.51 µM [falling, single point]	–
